Results taken from US20170057995A1, “USE OF AROMATIC-CATIONIC PEPTIDES TO TREAT CHOLESTEROL-INDUCED MITOCHONDRIAL DYSFUNCTION” (CORNELL UNIVERSITY, priority 2013, published 2017).

Test system: cholesterol-cytochrome c complex
Experiment: Fluorescence emission spectrum of [ald]SS-31: interaction with cholesterol-cytochrome c complex
Format: binding

D-Arg-2′,6′-Dmt-Lys-Ald-NH2 [[ald]SS-31]
shift of emission spectrum of the peptide (in contact with both cholesterol and cytochrome c): no shift
emission λmax of the peptide (with 4 μM cytochrome c, no shift): 530 nm
emission λmax of the peptide (with 100 μM cholesterol, blue shift from 530 nm): 436 nm
